Experimental data from article PMC10063618.
Numbering of substitutions follows the chain as printed. These are yes or no findings as the source states them, for the method shown. For part of these data: Binding calls can cover weak binding; strength is not graded here. For part of these data: Sequences can lack the tags named with a protein. For part of these data: Binding seen in cells or lysates may run through a third protein.

Assays:
[1] = molecular target: T1, GFP-FREE1 (transgenic Arabidopsis plants) (Arabidopsis thaliana) (UniProt Q9ASS2); test: co-IP; GFP-Trap magnetic beads, 2-4 h at 4 °C, on extracts of transgenic plants expressing the GFP fusion; endogenous partner found by immunoblot; IP buffer 50 mM Tris-HCl pH 7.4, 150 mM NaCl, 1 mM MgCl2, 20% glycerol, 0.2% NP-40; some experiments after nitrogen starvation for at least 18 h
T1 sequence: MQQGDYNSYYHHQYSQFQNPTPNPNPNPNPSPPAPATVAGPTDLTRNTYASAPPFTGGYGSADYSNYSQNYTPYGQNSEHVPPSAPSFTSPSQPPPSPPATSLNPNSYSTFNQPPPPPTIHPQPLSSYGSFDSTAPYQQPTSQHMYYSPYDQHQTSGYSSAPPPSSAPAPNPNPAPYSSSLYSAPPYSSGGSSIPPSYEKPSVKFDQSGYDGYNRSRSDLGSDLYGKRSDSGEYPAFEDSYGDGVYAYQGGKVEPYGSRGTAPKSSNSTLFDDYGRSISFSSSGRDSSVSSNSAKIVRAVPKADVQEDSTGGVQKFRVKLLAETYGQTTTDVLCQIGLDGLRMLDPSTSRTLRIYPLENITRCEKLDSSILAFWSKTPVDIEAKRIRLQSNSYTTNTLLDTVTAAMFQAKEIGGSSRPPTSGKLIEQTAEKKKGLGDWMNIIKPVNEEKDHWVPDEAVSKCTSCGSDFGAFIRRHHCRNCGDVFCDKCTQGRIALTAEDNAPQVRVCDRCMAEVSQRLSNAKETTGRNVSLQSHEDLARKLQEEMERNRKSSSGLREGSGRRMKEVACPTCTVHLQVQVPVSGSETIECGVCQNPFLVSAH

[2] = molecular target: T2, GFP-FREE1^S530A (Arabidopsis thaliana) (UniProt Q9ASS2); test: as above
T2 sequence: T1 sequence with S530A

[3] = molecular target: T3, GFP-FREE1^S530AS533A (Arabidopsis thaliana) (UniProt Q9ASS2); test: as above
T3 sequence: T1 sequence with S530A, S533A

[4] = molecular target: T4, BD-FREE1^231-601 (Arabidopsis thaliana) (UniProt Q9ASS2); test: two-hybrid; pGBKT7 (BD-FREE1 231-601) and pGADT7 co-transformed into yeast AH109; selection on SD lacking His, Trp, Leu with 3AT, or His, Trp, Leu and Ade
T4 sequence: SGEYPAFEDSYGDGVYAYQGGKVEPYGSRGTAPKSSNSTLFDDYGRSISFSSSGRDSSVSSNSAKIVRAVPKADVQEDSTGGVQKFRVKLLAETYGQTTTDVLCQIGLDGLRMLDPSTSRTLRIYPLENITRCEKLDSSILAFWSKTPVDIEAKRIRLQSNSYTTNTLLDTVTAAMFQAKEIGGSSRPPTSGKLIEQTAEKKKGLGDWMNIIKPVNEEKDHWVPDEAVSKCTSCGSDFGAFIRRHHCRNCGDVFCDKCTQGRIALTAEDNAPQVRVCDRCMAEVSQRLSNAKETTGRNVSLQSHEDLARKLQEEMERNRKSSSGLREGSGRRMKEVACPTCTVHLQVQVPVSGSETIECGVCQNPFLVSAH

[5] = molecular target: T5, FREE1^W438AI441A (yeast two-hybrid of Supplementary Fig. 16c) (Arabidopsis thaliana) (UniProt Q9ASS2); test: as above
T5 sequence: T4 sequence with W208A, I211A

[6] = molecular target: T6, CFP-FREE1 (Arabidopsis thaliana) (UniProt Q9ASS2); test: FRET or BRET; acceptor photobleaching FRET of CFP and YFP fusions in Arabidopsis protoplasts cultured 24 h, Leica SP8
T6 sequence: T1 sequence

Row | binding [1] | binding [2] | binding [4] | Substance | other results
1 | binds | no binding | – | ATG5-ATG12 conjugate (endogenous) (complex) | –
2 | – | – | binds | ATG8 (yeast two-hybrid of Supplementary Fig. 16c, isoform not told) (Arabidopsis thaliana) | binding [5]: no binding

Second part, the substance before the results:

Row | Substance | binding [1] | binding [2] | binding [4] | other results
3 | ATG8 (endogenous, isoform not told) | binds | no binding | – | binding [3]: no binding
4 | ATG12 (FRET fusion) (Arabidopsis thaliana) | – | – | – | binding [6]: no binding
5 | ATG12 (yeast two-hybrid fusion) (Arabidopsis thaliana) | – | – | no binding | –
